The results in this text go back to publication PMC8222926.

By UniProt entry, the sequences of proteins in these tests, tags left out. Where a name states a change or a piece, a line headed by the entry shows the natural chain unless it says otherwise.
UniProt A4D1B5: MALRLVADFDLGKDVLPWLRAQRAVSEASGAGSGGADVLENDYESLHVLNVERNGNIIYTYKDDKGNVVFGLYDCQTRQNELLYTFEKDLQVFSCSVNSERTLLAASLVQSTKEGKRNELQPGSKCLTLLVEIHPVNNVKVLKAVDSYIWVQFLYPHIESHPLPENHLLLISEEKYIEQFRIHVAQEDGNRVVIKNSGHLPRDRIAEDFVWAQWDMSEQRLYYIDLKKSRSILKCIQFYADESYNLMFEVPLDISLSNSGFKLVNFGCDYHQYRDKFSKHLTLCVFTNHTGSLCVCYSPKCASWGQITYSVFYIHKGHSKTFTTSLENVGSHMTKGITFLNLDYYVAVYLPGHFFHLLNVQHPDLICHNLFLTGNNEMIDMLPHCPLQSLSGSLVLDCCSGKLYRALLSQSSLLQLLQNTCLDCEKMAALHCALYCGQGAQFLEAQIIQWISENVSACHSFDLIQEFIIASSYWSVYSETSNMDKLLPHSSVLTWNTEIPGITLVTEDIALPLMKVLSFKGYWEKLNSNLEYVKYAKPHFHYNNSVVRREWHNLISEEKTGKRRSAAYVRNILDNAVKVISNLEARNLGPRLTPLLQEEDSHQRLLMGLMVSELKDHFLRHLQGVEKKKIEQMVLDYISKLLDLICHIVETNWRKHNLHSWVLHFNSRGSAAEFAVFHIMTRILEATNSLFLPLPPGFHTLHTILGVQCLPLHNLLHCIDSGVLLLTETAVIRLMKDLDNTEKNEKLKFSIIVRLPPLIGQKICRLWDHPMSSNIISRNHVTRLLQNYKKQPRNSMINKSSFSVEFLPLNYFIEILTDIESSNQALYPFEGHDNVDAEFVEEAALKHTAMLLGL

No constants are given. Whether binding was seen depends on the method and setting. In cells and extracts the contact can be indirect. Some binding calls cover weakened binding; strength is not graded here. For some assays here: Where a sequence is shown, tags or fusion partners need not be part of it.

Assay [1] addresses T1, full-length Fe65 (Flag-tagged) (UniProt O00213).
T1 sequence: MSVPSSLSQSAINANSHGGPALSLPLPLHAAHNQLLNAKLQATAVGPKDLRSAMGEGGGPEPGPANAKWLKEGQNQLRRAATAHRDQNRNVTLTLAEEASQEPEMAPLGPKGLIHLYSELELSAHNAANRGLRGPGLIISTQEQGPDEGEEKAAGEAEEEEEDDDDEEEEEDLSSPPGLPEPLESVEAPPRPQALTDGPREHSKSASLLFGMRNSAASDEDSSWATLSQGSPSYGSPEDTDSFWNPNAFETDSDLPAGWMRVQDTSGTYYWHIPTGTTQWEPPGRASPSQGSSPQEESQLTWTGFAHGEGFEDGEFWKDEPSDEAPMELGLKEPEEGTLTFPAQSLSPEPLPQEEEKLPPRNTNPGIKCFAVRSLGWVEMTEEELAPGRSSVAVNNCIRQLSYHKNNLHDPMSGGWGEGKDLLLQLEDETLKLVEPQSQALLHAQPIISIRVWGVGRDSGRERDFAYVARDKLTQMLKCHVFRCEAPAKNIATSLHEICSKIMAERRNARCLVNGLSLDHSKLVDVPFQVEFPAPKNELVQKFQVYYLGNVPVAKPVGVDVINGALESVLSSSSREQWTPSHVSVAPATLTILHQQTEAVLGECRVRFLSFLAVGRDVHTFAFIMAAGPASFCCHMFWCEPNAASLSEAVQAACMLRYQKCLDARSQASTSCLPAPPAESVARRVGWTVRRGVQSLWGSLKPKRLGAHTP
As to the kind of experiment: co-IP; transiently transfected tagged proteins (HEK293T or N2a cells); lysis in 1% CHAPSO buffer (50 mM Tris-HCl, 150 mM NaCl, pH 7.4), diluted to 0.25% CHAPSO; primary antibody or IgG control overnight at 4°C, protein G magnetic beads; immunoblot.

Assay [2] deals with T2, endogenous Fe65 (human (endogenous in A549; legend: HEK293T)) (UniProt O00213).
T2 sequence: T1 sequence
As to the kind of experiment: co-IP; endogenous proteins; Fe65 antibody; lysate of A549 cells (text; the legend says HEK293T); 0.25% CHAPSO; protein G magnetic beads; immunoblot. A general note: In western blotting, separated proteins are transferred to a membrane and probed.

As for “human GSAP-16k with HA tag (aa 733–854) (from UniProt A4D1B5 733-854) (domain or fragment)”, the binding entry in assay [1] is on record as “binds”.
For “endogenous GSAP (from UniProt A4D1B5 1-854)”, the binding result in assay [2] is reported as “binds”.
